Results as given in PubChem BioAssay AID504847 (National Center for Advancing Translational Sciences (NCATS), 2011).
Where “and” joins values, the source holds several entries; their conditions need not be identical. Equal values may be shown once. About 3,700 (0.93%) of roughly 400,000 compounds were called active. This list was built around the results that the source calls inconclusive (neither active nor inactive); the mix of calls is not that of the screen. Calls come from the whole dose curve; as a rule, active = well fitted inhibition curve with a large enough effect; inconclusive = small, poorly fitted or top-dose-only effect, or another doubt; inactive = no such curve, though single readings can be large or run the other way. Where the call is inconclusive, the potency comes from a doubtful curve fit.

The chains behind the UniProt entries cited, without tags or fusion partners. Where a name states a change or a piece, a line headed by the entry shows the natural chain unless it says otherwise.
UniProt P11473: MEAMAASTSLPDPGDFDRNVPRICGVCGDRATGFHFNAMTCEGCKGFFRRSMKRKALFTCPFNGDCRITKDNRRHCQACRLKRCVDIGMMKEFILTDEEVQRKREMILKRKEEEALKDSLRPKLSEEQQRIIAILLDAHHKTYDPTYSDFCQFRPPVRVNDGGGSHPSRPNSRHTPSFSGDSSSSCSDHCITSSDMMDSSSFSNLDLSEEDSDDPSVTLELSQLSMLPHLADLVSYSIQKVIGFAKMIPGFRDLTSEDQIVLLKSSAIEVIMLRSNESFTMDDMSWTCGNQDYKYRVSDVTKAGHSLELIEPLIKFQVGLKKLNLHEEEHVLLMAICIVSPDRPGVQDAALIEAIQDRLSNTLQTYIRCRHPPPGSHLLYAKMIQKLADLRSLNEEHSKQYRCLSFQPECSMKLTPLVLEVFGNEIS

target: Vitamin D3 receptor (Homo sapiens) (UniProt P11473); test: Inhibitors of the vitamin D receptor (VDR): qHTS; settings: VDR-SRC2-3 peptide fluorescence polarization, 2 h; max response, negative = inhibition: hits give low values
Summary of the method: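 Signal is fluorescence polarization, reporting how far test compounds block the interaction of VDR with the SRC2-3 coregulator peptide after a 2 h room-temperature incubation.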
% is set by controls: 0 for no effect and ±100 for the full control effect; potency is the fitted concentration of half-maximal effect.

Row | SMILES | max response, negative = inhibition | Potency
1 | Cc1ccc(S(=O)(=O)NCCCC(=O)N2CCC(C)CC2)cc1 | inactive: -19.1% | –
2 | CNC(=O)[C@H](Cc1c[nH]c2ccccc12)NC(=O)[C@@H](CC(=O)NO)CC(C)C | – | inconclusive: 44.7 µM [inhibitor, full curve]
3 | Cc1cccc(NC(=S)N2CCC(C(=O)c3ccc(F)cc3)CC2)c1 | – | inconclusive: 39.8 µM [inhibitor, single point]
4 | CC(Sc1ncn[nH]1)C(=O)NCc1ccccc1 (centres undefined) | inactive: 9.08% | –
5 | O=C1ON=C(c2ccc(Cl)cc2)/C1=C/c1ccc(O)cc1 | – | inconclusive: 39.8 µM [inhibitor, single point]
6 | COc1cccc(-c2cncnc2Nc2ccccc2)c1 | – | active: 39.8 µM
7 | CC(C)C1=CC2=CC[C@@H]3[C@](C)(CCC[C@@]3(C)C(=O)O)[C@H]2CC1 | – | inconclusive: 89.1 µM [inhibitor, partial curve, poor fit]
8 | CCCCN(CCCC)CCCNC(=O)c1ccc2nc(N3CCCCC3)sc2c1 | inactive: -7.37% | –
9 | O=C(Cn1c(=O)c2c3c(sc2n(Cc2ccccc2)c1=O)CCCC3)NCCO | – | inconclusive: 3.98 µM [inhibitor, full curve, poor fit]
10 | COC(=O)[C@H]1Cc2c([nH]c3ccccc23)CN1C(=O)COc1ccc2c(C)cc(=O)oc2c1 | inactive: 3.88% | –
11 | CCOC(=O)CSc1nc(-c2ccccc2)ns1 | – | inconclusive: 89.1 µM [inhibitor, single point]
12 | CCOC(=O)C1(CC2CCCCO2)CCN(S(=O)(=O)c2ccc(OC)cc2)CC1 (centres undefined) | – | inconclusive: 89.1 µM [inhibitor, partial curve, poor fit]
13 | CCOc1ccc(S(=O)(=O)Nc2cccc(C(=O)NCC(c3ccc(OC)cc3)N3CCOCC3)c2)cc1 (centres undefined) | – | inconclusive: 100 µM [inhibitor, single point]
14 | Cc1cccc(OCCn2c(=S)[nH]c3ccccc32)c1 | – | inconclusive: 56.2 µM [inhibitor, partial curve, poor fit]
15 | O=C(Oc1ccc2c(c1)O/C(=C\c1ccncc1)C2=O)c1ccccc1 | – | inconclusive: 50.1 µM [inhibitor, partial curve]
16 | COC(=O)CCC(=O)OC1(C)C(=O)C2=CN(C3CCCC3)C(c3ccc(OC)cc3)=CC2=C(Br)C1=O (centres undefined) | – | inconclusive: 39.8 µM [inhibitor, partial curve]
17 | Cc1ccc(S(=O)(=O)/N=C2\C=C(NS(=O)(=O)c3ccccc3)C(=O)c3ccccc32)cc1 | – | inconclusive: 35.5 µM [inhibitor, single point]
18 | O=C(C[C@H]1C/C=C\C[C@H](NC(=O)OCC2c3ccccc3-c3ccccc32)C(=O)OC[C@@H]2CCCN2C1=O)NCCO | inactive: -21.2% | –
19 | CCOc1ccc(C2NC(=O)c3sc(=S)n(-c4ccccc4)c3N2)cc1 (centres undefined) | – | inconclusive: 79.4 µM [inhibitor, partial curve, poor fit]
20 | COc1ccc(OC)c(-c2cc(C(=O)Nc3c(C)nn(Cc4ccc(C)cc4)c3C)no2)c1 | inactive: 4.6% | –
21 | O=C(CCCCCn1c(=S)[nH]c2ccc(N3CCOCC3)cc2c1=O)NC1CCN(Cc2ccccc2)CC1 | inactive: 4.62% | –
22 | O=C(N/N=C/c1cc(Cl)c(O)c(Cl)c1)c1cc2c(ccc3ccccc32)o1 | inactive: -19.4% | –

Row | SMILES | max response, negative = inhibition | Potency
23 | O=C(CCc1nnc(C2CCCCC2)o1)N1CCN(Cc2ccccc2)CC1 | – | inconclusive: 3.98 µM [inhibitor, single point]
24 | COc1ccc(NC(=O)CC2C(=O)N(c3ccccc3)C(=O)N2CCc2sccc2C)cc1 (centres undefined) | – | inconclusive: 89.1 µM [inhibitor, partial curve, poor fit]
25 | CCc1ccccc1NC(=O)c1sc2nc(C)cc(C)c2c1N | – | inconclusive: 89.1 µM [inhibitor, single point]
26 | COc1cc(C(=O)N/C(=C\c2cn(C)c3ccccc23)C(=O)NCCCN2CCOCC2)cc(OC)c1OC | – | inconclusive: 17.8 µM [inhibitor, partial curve, poor fit]
27 | Cc1ccc(CNC(=O)c2ccc3c(c2)S(=O)(=O)c2ccccc2C3=O)o1 | – | inconclusive: 63.1 µM [inhibitor, partial curve, poor fit]
28 | COC(=O)C1=C(C)N(CCc2ccc(OC)c(OC)c2)C(=O)/C1=C\N(C)C | – | inconclusive: 56.2 µM [inhibitor, partial curve, poor fit]
29 | CCCCN1C2CCCC1CC(NC(=O)C1CCCCC1)C2 (centres undefined) | inactive: -7.28% | –
30 | CCN(CC)S(=O)(=O)c1cc(NC(=O)c2ccc(Br)s2)ccc1C | – | inconclusive: 79.4 µM [inhibitor, single point]
31 | CC1(C)Cc2ccccc2C2=NNC(=O)C2=N1 | – | active: 11.2 µM
32 | COc1cc(CNc2cccc3[nH]c(C(F)(F)F)nc23)cc(OC)c1 | – | inconclusive: 89.1 µM [inhibitor, single point]
33 | CCOC(=O)c1cc(NC(=O)c2ccc(F)cc2)c(=O)n2c1oc1ccc(Cl)cc12 | inactive: 0.999% | –
34 | Cc1cc(O)c(CN2CCN(c3ccccc3)CC2)c2oc(=O)cc(C)c12 | inactive: 8.7% | –
35 | COc1ccc(CNC(=O)CN2CCC(NC(=O)c3ccccc3C)CC2)cc1 | inactive: -5.95% | –
36 | Cc1c(/C=C(\CC(=O)O)c2nc3ccccc3s2)cc(C#N)n1C | – | inconclusive: 39.8 µM [inhibitor, single point]
37 | CCc1cccc(NC(=O)C2CCN(c3ncnc4sc(C)c(C)c34)CC2)c1 | – | inconclusive: 89.1 µM [inhibitor, partial curve, poor fit]
38 | CCOc1ccccc1-c1cc(C(=O)N/N=C/c2cccnc2)c2ccccc2n1 | – | inconclusive: 100 µM [inhibitor, single point]
39 | COCC(C)n1c(C)cc(C(=O)COC(=O)c2cc(=O)[nH]c3ccccc23)c1C (centres undefined) | – | inconclusive: 89.1 µM [inhibitor, single point]
40 | O=[N+]([O-])c1ccc(O)c(-c2cc(C(F)(F)F)nc(-c3ccccc3)n2)c1 | inactive: -15.3% | –
41 | Fc1ccc(-c2nc(-c3cccs3)[nH]c2-c2ccc(F)cc2)cc1 | inactive: -13.5% | –
42 | CCCCCCCNC(=O)C1(CC2CC(c3ccccc3)=NO2)CCN(C(=O)c2ccccc2)CC1 (centres undefined) | – | inconclusive: 63.1 µM [inhibitor, partial curve, poor fit]
43 | Cc1ccc(NS(=O)(=O)c2csc(C(N)=O)c2)cc1C | inactive: -1.33% | –
44 | O=C(NCC(c1cccnc1)N1CCc2ccccc21)c1ccc(Cl)cc1 (centres undefined) | inactive: 6.41% | –

Row | SMILES | max response, negative = inhibition | Potency
45 | Cc1cc(NS(=O)(=O)c2ccc(NC(=O)COc3cc(C)c(Br)cc3C(C)C)cc2)no1 | – | inconclusive: 28.2 µM [inhibitor, full curve, poor fit]
46 | O=C(O)c1ccc(NN=CC2=C(N3CCOCC3)/C(=C/c3ccccc3)CC2)cc1 | – | inconclusive: 50.1 µM [inhibitor, partial curve, poor fit]
47 | Cc1cccc(N2CCN(CCCNc3ncnc4onc(-c5ccc(F)cc5)c34)CC2C)c1 (centres undefined) | inactive: -13.3% | –
48 | O=C(NCCN1CCOCC1)/C(=C/c1ccccc1)NC(=O)c1ccccc1 | – | inconclusive: 70.8 µM [inhibitor, partial curve]
49 | O=C(CNS(=O)(=O)c1ccc(F)c(Cl)c1)N1CCCC1 | inactive: -8.17% | –
50 | Cc1nnc(NC(=O)c2cccc(S(=O)(=O)N3CCN(C)CC3)c2)s1 | – | inconclusive: 100 µM [inhibitor, single point]
51 | CC(=O)Nc1ccc(NC(=O)CSc2nnc(-c3cccnc3)o2)cc1 | – | inconclusive: 100 µM [inhibitor, single point]
52 | Cc1no[n+]([O-])c1COc1ccc(/C=C(\C#N)C(N)=O)cc1 | – | inconclusive: 39.8 µM [inhibitor, partial curve, poor fit]
53 | COc1ccc(NC(=S)Nc2ccc(OCc3ccccc3)cc2)cc1OC | inactive: 11.7% | –
54 | CC(C)(C)OC(=O)N1CCC(Cc2cc(-c3ccc(Cl)cc3)no2)(C(=O)O)CC1 | – | inconclusive: 70.8 µM [inhibitor, partial curve, poor fit]
55 | COC(=O)c1ccc(C2N=C(c3cccs3)CC(c3ccccc3O)N2)cc1 (centres undefined) | – | inconclusive: 79.4 µM [inhibitor, partial curve]
56 | COC(=O)c1cc(-c2ccccc2)sc1N | – | inconclusive: 89.1 µM [inhibitor, partial curve, poor fit]
57 | CCn1c(=O)c([N+](=O)[O-])c(Cl)c2ccccc21 | – | inconclusive: 14.1 µM [inhibitor, partial curve, poor fit]
58 | O=[N+]([O-])c1nn(-c2ccc(Cl)cc2)n(O)c1=NCc1ccccc1 | – | inconclusive: 89.1 µM [inhibitor, partial curve, poor fit]
59 | Cc1cc(C)c2nc(N3CCCN(C(=O)c4ccco4)CC3)c(C#N)cc2c1 | – | active: 79.4 µM
60 | COC(=O)C1=CO[C@@H](C)[C@@H]2CN3CCc4c([nH]c5ccccc45)[C@@H]3C[C@H]12 | inactive: 1.86% | –
61 | CC1C(=O)N2CCCc3cc(NC(=O)C(=O)NCc4ccccn4)cc1c32 (centres undefined) | – | inconclusive: 79.4 µM [inhibitor, single point]
62 | Cc1cc(CNC(=O)C2(C(F)(F)F)C/C(=C\CCO)CCCO2)nn1C (centres undefined) | inactive: -5.49% and inactive: 13.7% | –
63 | CC(=O)n1cc([C@@H]2C=C(C(=O)Nc3ccccc3)O[C@H](OCc3ccc(CO)cc3)C2)c2ccccc21 | inactive: -15.5% | –
64 | N#C/C(=C/c1cccc([N+](=O)[O-])c1)c1nnc2n1CCCCC2 | – | inconclusive: 56.2 µM [inhibitor, partial curve, poor fit]

Given with tabs: 2 of the compounds above.
Row	SMILES	max response, negative = inhibition	Potency
50	Cc1nnc(NC(=O)c2cccc(S(=O)(=O)N3CCN(C)CC3)c2)s1	–	inconclusive: 100 µM [inhibitor, single point]
51	CC(=O)Nc1ccc(NC(=O)CSc2nnc(-c3cccnc3)o2)cc1	–	inconclusive: 100 µM [inhibitor, single point]
